Source: PubChem BioAssay AID1259254 (NCATS, 2017)
Aim: 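Genome-wide screen for genes that prevent DNA re-replication in cancer cells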 (primary screen). System: human HCT116 colorectal cancer cells. Reagents: single siRNA against human genes. Duration: 3 days. Measurement: 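Imaged Hoechst DNA stain sorts each cell into a cycle phase by DNA amount; per plate, G2 fraction set to 0% for non-targeting and 100% for GMNN siRNA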. Reading the numbers: G2 robust z-score and G2 cells, % of GMNN control: higher = more G2 cells, more excess DNA replication; raw share of cells in G2: higher = larger share of cells with G2 DNA content. Active means: 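An siRNA counts as active if its G2 robust z-score lies at least 5 MADs above the screen median; here such calls match roughly 38% of GMNN control or more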.
Here is an unselected part of about 59,000 reagents. About 1,550 of them (2.6%) were called active. 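G2 share is only a proxy for re-replication; each gene was hit by three separate siRNAs, and active genes were retested.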 Raw values vary from plate to plate and are shown uncorrected. A number with no mark means an inactive call. The numbers tell different reagents against one gene apart. The record does not give: the amount of reagent.

gene knocked down	reagent no.	G2 robust z-score	G2 cells, % of GMNN control	raw share of cells in G2 (%)
MTHFS	1	0.294	5.04	7.88
MTHFS	2	0.496	6.46	5.93
MTHFS	3	-1.44	-7.17	3.65
AIFM1	1	2.01	17.1	10.8
AIFM1	2	0.334	5.32	7.13
AIFM1	3	2.56	21	14.1
INTU	1	1.24	11.7	8.31
INTU	2	-0.502	-0.567	4.33
INTU	3	-0.0855	2.37	4
CST7	1	-0.248	1.22	5.09
CST7	2	1.55	13.9	9.68
CST7	3	1.92	16.5	11.1
XK	1	1.68	14.8	9.77
XK	2	1.07	10.5	7.92
XK	3	-0.346	0.532	5.82
DHRS4	1	-0.66	-1.68	5.82
DHRS4	2	-0.0456	2.65	6.85
DHRS4	3	0.433	6.01	5.79
SRGAP2	1	0.787	8.51	9.78
SRGAP2	2	-0.608	-1.31	3.72
SRGAP2	3	-0.73	-2.17	3.12
SRGAP2	4	0.144	3.98	5.16
SRGAP2	5	1.12	10.9	7.54
SRGAP2	6	-0.412	0.0678	3.14
DYRK1A	1	-0.108	2.2	6.34
DYRK1A	2	8.53 (active)	63	26.6
DYRK1A	3	-0.173	1.75	4.64
ZNF572	1	-0.0176	2.84	4.07
ZNF572	2	-0.224	1.39	3.65
ZNF572	3	0.917	9.42	6.83
DDX52	1	0.703	7.91	9.54
DDX52	2	0.0753	3.5	5.33
DDX52	3	1.36	12.5	8.16
GPM6B	1	-0.0898	2.34	6.4
GPM6B	2	-0.215	1.46	4.62
GPM6B	3	-0.87	-3.15	2.29
CFC1	1	-0.461	-0.279	4.24
CFC1	2	-0.597	-1.24	3.87
CFC1	3	0.804	8.62	5.76
BRD8	1	-0.318	0.733	6.77
BRD8	2	3.03	24.3	11.7
BRD8	3	-0.959	-3.78	4.05
GPR37L1	1	0.093	3.62	7.14
GPR37L1	2	0.747	8.22	7.39
GPR37L1	3	0.184	4.26	4.58

Continued; the last 9 above are carried over.
gene knocked down	reagent no.	G2 robust z-score	G2 cells, % of GMNN control	raw share of cells in G2 (%)
CFC1	1	-0.461	-0.279	4.24
CFC1	2	-0.597	-1.24	3.87
CFC1	3	0.804	8.62	5.76
BRD8	1	-0.318	0.733	6.77
BRD8	2	3.03	24.3	11.7
BRD8	3	-0.959	-3.78	4.05
GPR37L1	1	0.093	3.62	7.14
GPR37L1	2	0.747	8.22	7.39
GPR37L1	3	0.184	4.26	4.58
IFNL1	1	1.28	12	8.01
IFNL1	2	2.21	18.5	10.2
IFNL1	3	1.45	13.2	7.27
SDF2	1	1.02	10.2	9.3
SDF2	2	0.216	4.49	5.99
SDF2	3	0.591	7.13	5.93
GDPD5	1	0.324	5.25	7.62
GDPD5	2	-0.836	-2.91	3.14
GDPD5	3	0.372	5.58	6.85
SFN	1	1.39	12.7	11.3
SFN	2	6.17 (active)	46.4	21.1
SFN	3	-0.27	1.06	3.94
ST3GAL5	1	0.771	8.39	8.35
ST3GAL5	2	-0.775	-2.49	4.39
ST3GAL5	3	0.673	7.71	7.47
MGARP	1	-1.33	-6.37	1.99
MGARP	2	-0.599	-1.24	3.09
MGARP	3	-0.34	0.575	2.58
ZNF483	1	2.84	23	11
ZNF483	2	-0.09	2.33	3.98
ZNF483	3	-0.571	-1.05	3.16
TRARG1	1	0.311	5.16	5.52
TRARG1	2	0.057	3.37	4.35
TRARG1	3	-0.701	-1.96	2.67
